Laboratory results: PubChem BioAssay AID1259405 (NCATS, 2018)

- Screen: 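Silenced genes that increase secreted GFP made by CHO cells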 (primary screen)
- System: Chinese hamster CHO-K1 ovary cells with stable secreted eGFP expression
- Knock-down reagent: single siRNA against mouse genes, 0.8 pmol siRNA per well (2 µl of 400 nM stock)
- Time to read-out: 3 days
- Measured: 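Percent of the per-plate non-targeting control median for intracellular GFP per well by laser scanning cytometry and for cell viability by ATP luminescence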
- Direction: GFP, % of control: higher = more GFP per well, higher productivity; viability (ATP), % of control: higher = more viable cells (more ATP)
- Hit rule: 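a knock-down is called active if GFP reaches 120% or more of non-targeting control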
This is an unselected part of about 50,000 reagents. About 4,000 of them (8%) were called active. 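Mouse siRNA library applied to hamster cells; one well for each siRNA.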 Entries without a mark were called inactive. Reagents against one gene are numbered here. Reagent sequences are not shown.

gene	reagent	GFP, % of control	viability (ATP), % of control
Bcap31 (GeneID 27061)	1	93.9	78.1
Bcap31 (GeneID 27061)	2	68.9	73.9
Bcap31 (GeneID 27061)	3	98.9	75.9
Mef2d (GeneID 17261)	1	84.6	83.5
Mef2d (GeneID 17261)	2	88.3	72
Mef2d (GeneID 17261)	3	85.5	96.6
Nat2 (GeneID 17961)	1	103	87.1
Nat2 (GeneID 17961)	2	62.1	93.3
Nat2 (GeneID 17961)	3	97.5	96.4
Cd2 (GeneID 12481)	1	55.8	64.8
Mogat1 (GeneID 68393)	1	95.4	83.3
Mogat1 (GeneID 68393)	2	95.5	136
Mogat1 (GeneID 68393)	3	79.7	97.5
Capza3 (GeneID 12344)	1	59.5	60.6
Capza3 (GeneID 12344)	2	68.9	67.4
Capza3 (GeneID 12344)	3	74	80.4
Tle4 (GeneID 21888)	1	136 (active)	95.9
Tle4 (GeneID 21888)	2	68.1	67.8
Tle4 (GeneID 21888)	3	90.1	86.2
Stra6 (GeneID 20897)	1	72.5	72.7
Stra6 (GeneID 20897)	2	90.6	101
Stra6 (GeneID 20897)	3	99.4	71.9
B3gnt9 (GeneID 97440)	1	34.9	44.4
B3gnt9 (GeneID 97440)	2	70.8	86.1
B3gnt9 (GeneID 97440)	3	52.9	32.5
Syt1 (GeneID 20979)	1	133 (active)	92
Syt1 (GeneID 20979)	2	85.7	74.9
Ube2m (GeneID 22192)	1	207 (active)	95.9
Ube2m (GeneID 22192)	2	75.7	72.1
Ube2m (GeneID 22192)	3	77.9	85.2
Otop2 (GeneID 237987)	1	40.9	44
Otop2 (GeneID 237987)	2	45.1	46.9
Otop2 (GeneID 237987)	3	184 (active)	87.2
Otop2 (GeneID 237987)	4	79.4	80.2
Otop2 (GeneID 237987)	5	45.7	98.2
Otop2 (GeneID 237987)	6	112	92.4

Continued (5 carried over from the part before).
gene	reagent	GFP, % of control	viability (ATP), % of control
Otop2 (GeneID 237987)	2	45.1	46.9
Otop2 (GeneID 237987)	3	184 (active)	87.2
Otop2 (GeneID 237987)	4	79.4	80.2
Otop2 (GeneID 237987)	5	45.7	98.2
Otop2 (GeneID 237987)	6	112	92.4
Or1o3 (GeneID 258503)	1	46.9	48.1
Or1o3 (GeneID 258503)	2	86.6	78.7
Or1o3 (GeneID 258503)	3	30.5	30.1
Plscr4 (GeneID 235527)	1	91.8	95.6
Plscr4 (GeneID 235527)	2	131 (active)	109
Plscr4 (GeneID 235527)	3	98.3	93.3
Rab13 (GeneID 68328)	1	173 (active)	144
Rab13 (GeneID 68328)	2	87.4	85.8
Rab13 (GeneID 68328)	3	59.6	91.2
Or8b52 (GeneID 258183)	1	28.3	44.2
Or8b52 (GeneID 258183)	2	47.8	49.3
Or8b52 (GeneID 258183)	3	111	83
Acox2 (GeneID 93732)	1	133 (active)	86.6
Acox2 (GeneID 93732)	2	86	68.5
Acox2 (GeneID 93732)	3	84.4	89
Cenpe (GeneID 229841)	1	77.6	45.6
Cenpe (GeneID 229841)	2	77.2	84
Vmn1r30 (GeneID 171195)	1	105	64.8
Vmn1r30 (GeneID 171195)	2	124 (active)	53
Vmn1r30 (GeneID 171195)	3	130 (active)	119
Hrk (GeneID 12123)	1	73.7	72.3
Hrk (GeneID 12123)	2	82.7	73.6
Rtcb (GeneID 28088)	1	68.7	68.2
Rtcb (GeneID 28088)	2	34.1	49.3
Rtcb (GeneID 28088)	3	74.5	78.3
Zdhhc12 (GeneID 66220)	1	71	53.6
Zdhhc12 (GeneID 66220)	2	118	55.7
Zdhhc12 (GeneID 66220)	3	97.7	103
Vangl1 (GeneID 229658)	1	36.2	46
Vangl1 (GeneID 229658)	2	116	77.2
Vangl1 (GeneID 229658)	3	93.9	85.8
Ntn1 (GeneID 18208)	1	94.6	117
Ntn1 (GeneID 18208)	2	102	91.2
Vdr (GeneID 22337)	1	40.4	43.1
Vdr (GeneID 22337)	2	81.2	74.6
Vdr (GeneID 22337)	3	40.4	39.5
Klhl1 (GeneID 93688)	1	29.7	25.6
Klhl1 (GeneID 93688)	2	86.4	82.2
Anxa5 (GeneID 11747)	1	85.8	130
Anxa5 (GeneID 11747)	2	90	75.2
Anxa5 (GeneID 11747)	3	79.6	70.5
Tlr4 (GeneID 21898)	1	114	87.2
Tlr4 (GeneID 21898)	2	42.5	51.6
Tlr4 (GeneID 21898)	3	122 (active)	77.7
Zfp455 (GeneID 218311)	1	45.8	49.9
Zfp455 (GeneID 218311)	2	80	76.8
Zfp455 (GeneID 218311)	3	61.6	64.3
Cspp1 (GeneID 211660)	1	60.3	45
Cspp1 (GeneID 211660)	2	76.4	66.9
Cspp1 (GeneID 211660)	3	116	87.2
Sft2d2 (GeneID 108735)	1	42.8	38
Sft2d2 (GeneID 108735)	2	66.5	98.1
Sft2d2 (GeneID 108735)	3	58.6	71.5
Or52p2 (GeneID 258750)	1	98.5	112
Or52p2 (GeneID 258750)	2	76.1	45.9
Or52p2 (GeneID 258750)	3	49	107
Plcd4 (GeneID 18802)	1	68.9	77
Plcd4 (GeneID 18802)	2	121 (active)	85.9
Plcd4 (GeneID 18802)	3	42.4	47.5
Ada (GeneID 11486)	1	87.1	45.1
Ada (GeneID 11486)	2	103	73.6
Ada (GeneID 11486)	3	120	113
Tial1 (GeneID 21843)	1	121 (active)	87.6
Tial1 (GeneID 21843)	2	134 (active)	67.2
Tial1 (GeneID 21843)	3	96.4	92.8
Hps4 (GeneID 192232)	1	49.1	63.8
Hps4 (GeneID 192232)	2	93.5	50
Hps4 (GeneID 192232)	3	101	98.9
Tefm (GeneID 68550)	1	157 (active)	116
Tefm (GeneID 68550)	2	22.1	47.2
Tefm (GeneID 68550)	3	51.1	64
